PubChem BioAssay AID1259254 – NCATS, 2017

- Assay: 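Genome-wide screen for genes that prevent DNA re-replication in cancer cells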 (primary screen)
- System: human HCT116 colorectal cancer cells
- Reagents: single siRNA against human genes
- Duration: 3 days
- Detection: 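Nuclei stained with Hoechst and imaged; cell-cycle phase assigned by DNA content; G2 share scaled per plate, non-targeting siRNA 0%, GMNN siRNA 100%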
- Direction: G2 robust z-score and G2 cells, % of GMNN control: higher = more G2 cells, more excess DNA replication; raw share of cells in G2: higher = larger share of cells with G2 DNA content
- Call rule: 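An siRNA counts as active if its G2 robust z-score lies at least 5 MADs above the screen median; here such calls match roughly 38% of GMNN control or more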
In all, the deposit lists about 59,000 reagents; shown is a part drawn at random. Over the whole deposit, about 1,550 (2.6%) got an active call. 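G2 share is only a proxy for re-replication; each gene was hit by three separate siRNAs, and active genes were retested.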 The raw values are shown without normalisation. The numbers tell different reagents against one gene apart. Not stated in the record: the amount of reagent.

Gene,siRNA no.,G2 robust z-score,"G2 cells, % of GMNN control",raw share of cells in G2 (%),call
ANKRD34A,1,1.54,13.8,8.68,inactive
ANKRD34A,2,0.184,4.26,4.69,inactive
ANKRD34A,3,-0.314,0.758,3.5,inactive
AFP,1,-0.952,-3.73,3.75,inactive
AFP,2,1.7,14.9,9.79,inactive
AFP,3,0.784,8.49,7.15,inactive
EIF3D,1,0.312,5.16,6.88,inactive
EIF3D,2,3.35,26.6,14.2,inactive
EIF3D,3,2.05,17.4,11.4,inactive
HAGH,1,1.74,15.2,10.6,inactive
HAGH,2,3.57,28.1,16.4,inactive
HAGH,3,3.01,24.2,13.1,inactive
KLF15,1,-0.892,-3.31,1.62,inactive
KLF15,2,0.13,3.88,7.66,inactive
KLF15,3,-0.13,2.05,4.28,inactive
OPRK1,1,6.24,46.9,22.6,active
OPRK1,2,-0.683,-1.84,3.88,inactive
OPRK1,3,0.0716,3.47,4.33,inactive
CTC1,1,0.0261,3.15,5.75,inactive
CTC1,2,0.0873,3.58,5.87,inactive
CTC1,3,-0.804,-2.69,1.64,inactive
FOXI2,1,-0.221,1.42,4.33,inactive
FOXI2,2,0.731,8.11,6.74,inactive
FOXI2,3,-0.685,-1.85,4.02,inactive
LOC393078 (retired record),1,1.17,11.2,7.96,inactive
LOC393078 (retired record),2,-0.667,-1.72,4.08,inactive
LOC393078 (retired record),3,0.0693,3.46,5.07,inactive
SCARF2,1,-0.0488,2.62,5.47,inactive
SCARF2,2,-0.609,-1.31,5.06,inactive
SCARF2,3,-0.514,-0.651,4.69,inactive
VPS13B,1,-0.263,1.12,6.49,inactive
VPS13B,2,-0.352,0.49,4.88,inactive
VPS13B,3,2.73,22.2,14,inactive
VEGFD,1,2.04,17.4,13.4,inactive
VEGFD,2,0.303,5.1,5.95,inactive
VEGFD,3,-0.66,-1.68,2.87,inactive
TMEM25,1,-0.298,0.87,3.2,inactive
TMEM25,2,0.107,3.72,5.66,inactive
TMEM25,3,-0.228,1.36,3.43,inactive
ZBTB8OSP1,1,0.905,9.34,7.76,inactive
ZBTB8OSP1,2,0.588,7.11,5.62,inactive
ZBTB8OSP1,3,-0.656,-1.65,2.57,inactive
MPO,1,-0.307,0.81,3.46,inactive
MPO,2,-0.715,-2.07,4.56,inactive
MPO,3,1.93,16.5,12,inactive
LIN37,1,6.28,47.1,18,active
LIN37,2,-0.483,-0.432,4.18,inactive
LIN37,3,1.82,15.8,12,inactive
